Measured values taken from doi:10.1101/2020.09.21.306522.

Chains of the proteins cited; added tags and fusions are not shown. Lines headed by an entry give the natural chain unless they say otherwise; changes in a name come on top.
UniProt O94851: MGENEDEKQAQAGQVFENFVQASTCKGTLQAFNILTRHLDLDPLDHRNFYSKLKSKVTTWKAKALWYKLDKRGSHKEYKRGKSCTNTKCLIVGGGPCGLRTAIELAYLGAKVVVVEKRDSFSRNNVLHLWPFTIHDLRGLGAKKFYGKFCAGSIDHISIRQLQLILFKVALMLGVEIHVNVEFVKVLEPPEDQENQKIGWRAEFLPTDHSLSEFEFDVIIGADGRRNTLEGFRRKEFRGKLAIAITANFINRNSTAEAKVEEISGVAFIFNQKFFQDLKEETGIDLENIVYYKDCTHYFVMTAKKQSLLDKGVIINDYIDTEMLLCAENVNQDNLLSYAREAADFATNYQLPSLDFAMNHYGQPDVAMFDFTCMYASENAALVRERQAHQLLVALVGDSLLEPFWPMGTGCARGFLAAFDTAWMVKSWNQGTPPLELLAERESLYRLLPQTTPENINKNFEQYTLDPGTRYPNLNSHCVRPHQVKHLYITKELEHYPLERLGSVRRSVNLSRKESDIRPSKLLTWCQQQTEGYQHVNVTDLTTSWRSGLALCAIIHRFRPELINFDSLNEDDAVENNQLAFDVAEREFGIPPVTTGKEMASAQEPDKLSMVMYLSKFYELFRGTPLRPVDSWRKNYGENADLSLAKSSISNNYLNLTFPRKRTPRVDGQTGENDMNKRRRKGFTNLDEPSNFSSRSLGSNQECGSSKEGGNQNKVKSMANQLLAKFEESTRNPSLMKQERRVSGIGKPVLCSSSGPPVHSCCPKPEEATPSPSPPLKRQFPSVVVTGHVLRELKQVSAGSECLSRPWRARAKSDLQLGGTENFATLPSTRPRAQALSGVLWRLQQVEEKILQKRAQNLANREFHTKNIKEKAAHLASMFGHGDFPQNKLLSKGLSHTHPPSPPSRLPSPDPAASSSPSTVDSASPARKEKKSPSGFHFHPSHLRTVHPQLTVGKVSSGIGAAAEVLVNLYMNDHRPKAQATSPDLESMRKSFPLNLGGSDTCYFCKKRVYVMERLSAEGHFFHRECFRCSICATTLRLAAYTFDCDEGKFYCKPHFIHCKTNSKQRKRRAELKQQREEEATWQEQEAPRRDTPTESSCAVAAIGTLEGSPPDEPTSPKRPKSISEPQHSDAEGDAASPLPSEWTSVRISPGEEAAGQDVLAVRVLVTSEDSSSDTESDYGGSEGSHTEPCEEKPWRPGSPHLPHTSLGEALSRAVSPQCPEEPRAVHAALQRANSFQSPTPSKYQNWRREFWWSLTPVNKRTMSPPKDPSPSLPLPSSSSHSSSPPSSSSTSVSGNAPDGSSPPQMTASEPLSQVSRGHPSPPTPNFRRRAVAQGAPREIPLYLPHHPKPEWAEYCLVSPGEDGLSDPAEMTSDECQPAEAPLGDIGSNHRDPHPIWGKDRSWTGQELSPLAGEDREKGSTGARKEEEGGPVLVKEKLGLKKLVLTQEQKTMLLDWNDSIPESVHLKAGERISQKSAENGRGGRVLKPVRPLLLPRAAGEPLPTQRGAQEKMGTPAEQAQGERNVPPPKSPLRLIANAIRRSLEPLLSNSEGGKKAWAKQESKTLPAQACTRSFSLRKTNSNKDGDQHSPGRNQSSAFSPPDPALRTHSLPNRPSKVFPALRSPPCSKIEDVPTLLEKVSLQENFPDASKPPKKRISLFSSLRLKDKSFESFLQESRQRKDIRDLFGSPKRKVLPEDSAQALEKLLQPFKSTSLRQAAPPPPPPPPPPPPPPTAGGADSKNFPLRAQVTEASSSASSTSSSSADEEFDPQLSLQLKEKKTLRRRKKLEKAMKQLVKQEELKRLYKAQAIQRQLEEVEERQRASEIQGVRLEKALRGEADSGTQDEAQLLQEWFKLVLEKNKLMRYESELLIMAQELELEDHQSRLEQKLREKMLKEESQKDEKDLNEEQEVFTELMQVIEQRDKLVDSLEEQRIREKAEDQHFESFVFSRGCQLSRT
UniProt Q9ULV4: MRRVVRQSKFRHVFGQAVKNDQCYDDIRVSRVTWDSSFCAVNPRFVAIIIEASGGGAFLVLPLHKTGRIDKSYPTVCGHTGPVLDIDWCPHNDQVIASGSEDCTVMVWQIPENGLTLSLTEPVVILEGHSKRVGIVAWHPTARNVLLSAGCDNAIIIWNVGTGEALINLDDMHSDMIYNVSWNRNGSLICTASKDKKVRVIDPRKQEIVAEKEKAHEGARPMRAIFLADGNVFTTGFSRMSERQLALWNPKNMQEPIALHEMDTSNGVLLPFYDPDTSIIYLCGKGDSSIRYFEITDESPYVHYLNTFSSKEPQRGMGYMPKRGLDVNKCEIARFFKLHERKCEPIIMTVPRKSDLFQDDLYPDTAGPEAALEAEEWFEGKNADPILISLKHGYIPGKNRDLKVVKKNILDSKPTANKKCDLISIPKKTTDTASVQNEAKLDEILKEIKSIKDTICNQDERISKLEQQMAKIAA

Biological target: GFP-tagged MICAL2 (human) (UniProt O94851)
Assay: co-IP

**Q.** With coronin-1C (from UniProt Q9ULV4 1-474) as the substance, how does the binding read?
**A.** binds

These are yes or no findings as the source states them, for the method shown. Binding seen in cells or lysates may run through a third protein. Binding calls can cover weak binding; strength is not graded here.
